Test results as given in the supplement of paper PMC8728848.
Some of the results follow.

Tests used:
Assay in all cases: glycan array binding signal (z-score within array); higher = stronger binding
Conditions in all cases: glycan notation: IUPAC condensed, linker removed
[1] = target: Gal(b1-4)GlcNAc(b1-3)Gal(b1-4)GlcNAc(b1-2)Man(a1-3)[Gal(b1-4)GlcNAc(b1-3)Gal(b1-4)GlcNAc(b1-2)Man(a1-6)]Man(b1-4)GlcNAc(b1-4)[Fuc(a1-6)]GlcNAc
Outline: (§1)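 The binding signal is a Z-score computed within each array. Data were drawn from 3228 arrays in the Consortium for Functional Glycomics database, restricted to those with a known protein sequence. Scores were averaged over arrays of the same protein sequence at different concentrations or buffers, and over linkers, and negative values can be taken as non-binding.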

[2] = target: Gal(b1-4)GlcNAc(b1-3)Gal(b1-4)GlcNAc(b1-2)[Gal(b1-4)GlcNAc(b1-3)Gal(b1-4)GlcNAc(b1-6)]Man(a1-6)[Gal(b1-4)GlcNAc(b1-3)Gal(b1-4)GlcNAc(b1-2)Man(a1-3)]Man(b1-4)GlcNAc(b1-4)GlcNAc
Outline: as §1

[3] = target: Gal(b1-4)GlcNAc(b1-3)Gal(b1-4)GlcNAc(b1-2)[Gal(b1-4)GlcNAc(b1-3)Gal(b1-4)GlcNAc(b1-6)]Man(a1-6)[Gal(b1-4)GlcNAc(b1-3)Gal(b1-4)GlcNAc(b1-2)Man(a1-3)]Man(b1-4)GlcNAc(b1-4)[Fuc(a1-6)]GlcNAc
Outline: as §1

[4] = target: Gal(b1-4)GlcNAc(b1-3)Gal(b1-4)GlcNAc(b1-3)Gal(b1-4)GlcNAc
Outline: as §1

[5] = target: Gal(b1-4)GlcNAc(b1-3)Gal(b1-4)GlcNAc(b1-3)Gal(b1-4)GlcNAc(b1-2)Man(a1-3)[Gal(b1-4)GlcNAc(b1-3)Gal(b1-4)GlcNAc(b1-3)Gal(b1-4)GlcNAc(b1-2)Man(a1-6)]Man(b1-4)GlcNAc(b1-4)GlcNAc
Outline: as §1

[6] = target: Gal(b1-4)GlcNAc(b1-3)Gal(b1-4)GlcNAc(b1-3)Gal(b1-4)GlcNAc(b1-2)Man(a1-3)[Gal(b1-4)GlcNAc(b1-3)Gal(b1-4)GlcNAc(b1-3)Gal(b1-4)GlcNAc(b1-2)Man(a1-6)]Man(b1-4)GlcNAc(b1-4)[Fuc(a1-6)]GlcNAc
Outline: as §1

[7] = target: Gal(b1-4)GlcNAc(b1-3)Gal(b1-4)GlcNAc(b1-3)Gal(b1-4)GlcNAc(b1-2)[Gal(b1-4)GlcNAc(b1-3)Gal(b1-4)GlcNAc(b1-3)Gal(b1-4)GlcNAc(b1-6)]Man(a1-6)[Gal(b1-4)GlcNAc(b1-3)Gal(b1-4)GlcNAc(b1-3)Gal(b1-4)GlcNAc(b1-2)Man(a1-3)]Man(b1-4)GlcNAc(b1-4)[Fuc(a1-6)]GlcNAc
Outline: as §1

[8] = target: Gal(b1-4)GlcNAc(b1-3)Gal(b1-4)GlcNAc(b1-3)Gal(b1-4)GlcNAc(b1-3)Gal(b1-4)GlcNAc(b1-2)Man(a1-3)[Gal(b1-4)GlcNAc(b1-3)Gal(b1-4)GlcNAc(b1-3)Gal(b1-4)GlcNAc(b1-3)Gal(b1-4)GlcNAc(b1-2)Man(a1-6)]Man(b1-4)GlcNAc(b1-4)GlcNAc
Outline: as §1

[9] = target: Gal(b1-4)GlcNAc(b1-3)Gal(b1-4)GlcNAc(b1-3)Gal(b1-4)GlcNAc(b1-3)Gal(b1-4)GlcNAc(b1-2)Man(a1-3)[Gal(b1-4)GlcNAc(b1-3)Gal(b1-4)GlcNAc(b1-3)Gal(b1-4)GlcNAc(b1-3)Gal(b1-4)GlcNAc(b1-2)Man(a1-6)]Man(b1-4)GlcNAc(b1-4)[Fuc(a1-6)]GlcNAc
Outline: as §1

[10] = target: Gal(b1-4)GlcNAc(b1-3)Gal(b1-4)GlcNAc(b1-3)Gal(b1-4)GlcNAc(b1-3)Gal(b1-4)GlcNAc(b1-2)[Gal(b1-4)GlcNAc(b1-3)Gal(b1-4)GlcNAc(b1-3)Gal(b1-4)GlcNAc(b1-3)Gal(b1-4)GlcNAc(b1-6)]Man(a1-6)[Gal(b1-4)GlcNAc(b1-3)Gal(b1-4)GlcNAc(b1-3)Gal(b1-4)GlcNAc(b1-3)Gal(b1-4)GlcNAc(b1-2)Man(a1-3)]Man(b1-4)GlcNAc(b1-4)[Fuc(a1-6)]GlcNAc
Outline: as §1

[11] = target: Gal(b1-4)GlcNAc(b1-3)Gal(b1-4)GlcNAc(b1-3)Gal(b1-4)GlcNAc(b1-3)Gal(b1-4)GlcNAc(b1-3)Gal(b1-4)GlcNAc(b1-2)Man(a1-3)[Gal(b1-4)GlcNAc(b1-3)Gal(b1-4)GlcNAc(b1-3)Gal(b1-4)GlcNAc(b1-3)Gal(b1-4)GlcNAc(b1-3)Gal(b1-4)GlcNAc(b1-2)Man(a1-6)]Man(b1-4)GlcNAc(b1-4)GlcNAc
Outline: as §1

[12] = target: Gal(b1-4)GlcNAc(b1-3)Gal(b1-4)GlcNAc(b1-3)Gal(b1-4)GlcNAc(b1-3)Gal(b1-4)GlcNAc(b1-3)Gal(b1-4)GlcNAc(b1-2)Man(a1-3)[Gal(b1-4)GlcNAc(b1-3)Gal(b1-4)GlcNAc(b1-3)Gal(b1-4)GlcNAc(b1-3)Gal(b1-4)GlcNAc(b1-3)Gal(b1-4)GlcNAc(b1-2)Man(a1-6)]Man(b1-4)GlcNAc(b1-4)[Fuc(a1-6)]GlcNAc
Outline: as §1

[13] = target: Gal(b1-4)GlcNAc(b1-3)Gal(b1-4)GlcNAc(b1-3)Gal(b1-4)GlcNAc(b1-3)Gal(b1-4)GlcNAc(b1-3)Gal(b1-4)GlcNAc(b1-2)[Gal(b1-4)GlcNAc(b1-3)Gal(b1-4)GlcNAc(b1-3)Gal(b1-4)GlcNAc(b1-3)Gal(b1-4)GlcNAc(b1-3)Gal(b1-4)GlcNAc(b1-6)]Man(a1-6)[Gal(b1-4)GlcNAc(b1-3)Gal(b1-4)GlcNAc(b1-3)Gal(b1-4)GlcNAc(b1-3)Gal(b1-4)GlcNAc(b1-3)Gal(b1-4)GlcNAc(b1-2)Man(a1-3)]Man(b1-4)GlcNAc(b1-4)[Fuc(a1-6)]GlcNAc
Outline: as §1

[14] = target: Gal(b1-4)GlcNAc(b1-3)Gal(b1-4)GlcNAc(b1-3)Gal(b1-4)GlcNAc(b1-3)Gal(b1-4)GlcNAc(b1-3)Gal(b1-4)GlcNAc(b1-3)Gal(b1-4)GlcNAc(b1-2)Man(a1-3)[Gal(b1-4)GlcNAc(b1-3)Gal(b1-4)GlcNAc(b1-3)Gal(b1-4)GlcNAc(b1-3)Gal(b1-4)GlcNAc(b1-3)Gal(b1-4)GlcNAc(b1-3)Gal(b1-4)GlcNAc(b1-2)Man(a1-6)]Man(b1-4)GlcNAc(b1-4)GlcNAc
Outline: as §1

[15] = target: Gal(b1-4)GlcNAc(b1-3)Gal(b1-4)GlcNAc(b1-3)GalNAc
Outline: as §1

[16] = target: Gal(b1-4)GlcNAc(b1-3)Gal(b1-4)GlcNAc(b1-3)[Gal(b1-4)GlcNAc(b1-3)Gal(b1-4)GlcNAc(b1-6)]GalNAc
Outline: as §1

[17] = target: Gal(b1-4)GlcNAc(b1-3)Gal(b1-4)GlcNAc(b1-6)[Gal(b1-3)]GalNAc
Outline: as §1

[18] = target: Gal(b1-4)GlcNAc(b1-3)Gal(b1-4)[Fuc(a1-3)]GlcNAc(b1-3)Gal(b1-4)[Fuc(a1-3)]GlcNAc
Outline: as §1

[19] = target: Gal(b1-4)GlcNAc(b1-3)GalNAc
Outline: as §1

[20] = target: Gal(b1-4)GlcNAc(b1-3)[Fuc(a1-3)GlcNAc(b1-6)]Gal(b1-4)Glc
Outline: as §1

[21] = target: Gal(b1-4)GlcNAc(b1-3)[Gal(b1-4)GlcNAc(b1-6)]Gal(b1-4)GlcNAc
Outline: as §1

[22] = target: Gal(b1-4)GlcNAc(b1-3)[GlcNAc(b1-6)]Gal(b1-4)GlcNAc
Outline: as §1

[23] = target: Gal(b1-4)GlcNAc(b1-6)Gal(b1-4)GlcNAc
Outline: as §1

[24] = target: Gal(b1-4)GlcNAc(b1-6)GalNAc
Outline: as §1

[25] = target: Gal(b1-4)GlcNAc(b1-6)[Gal(b1-3)]GalNAc
Outline: as §1

[26] = target: Gal(b1-4)GlcNAc(b1-6)[Gal(b1-4)GlcNAc(b1-3)]GalNAc
Outline: as §1

Gal(b1-4)GlcNAc6P = target: Gal(b1-4)GlcNAc6P
Outline: as §1

Gal(b1-6)Gal = target: Gal(b1-6)Gal
Outline: as §1

Gal3S(b1-3)GalNAc = target: Gal3S(b1-3)GalNAc
Outline: as §1

Gal3S(b1-3)GlcNAc = target: Gal3S(b1-3)GlcNAc
Outline: as §1

[27] = target: Gal3S(b1-3)[Fuc(a1-4)]GlcNAc
Outline: as §1

Gal3S(b1-4)Glc = target: Gal3S(b1-4)Glc
Outline: as §1

Gal3S(b1-4)Glc6S = target: Gal3S(b1-4)Glc6S
Outline: as §1

Gal3S(b1-4)GlcNAc = target: Gal3S(b1-4)GlcNAc
Outline: as §1

[28] = target: Gal3S(b1-4)[Fuc(a1-3)]Glc6S
Outline: as §1

[29] = target: Gal3S(b1-4)[Fuc(a1-3)]GlcNAc
Outline: as §1

[30] = target: Gal3S(b1-4)[Fuc(a1-3)]GlcNAc6S
Outline: as §1

B1: LlpA (Burkholderia cenocepacia) (protein)
chain: MGSSHHHHHHSSGLVPRGSHKILGSNETLSAGNVVYSDNGQYHLAMQTDGNLVVYGPTGAVWQSQTSGSGGNRAVMQGDGNLVIYRADNTAAWSSKTAHPGAFLAVQDDGNVVIYWPRPAWASNTSDPATQQSAESKYLASGSTMSAGQTVTVAQYMLVFQADGNLVLYKNGGNPIWSTGTQGKGATYAVMQSDGNFVIYAGSTALWSTKTNGANGAQLVLQSDGNLVIYAPTAAWSTKFGLVTAPTSTSTSNNGPGSGICVGVCPPHPLNGNPFSPVGVGTTGLGFPTPGYPGAAF
glycan array binding signal (z-score) [1]: 2.46
glycan array binding signal (z-score) [2]: 0.339
glycan array binding signal (z-score) [3]: 1.91
glycan array binding signal (z-score) [4]: 0.591
glycan array binding signal (z-score) [5]: 0.176
glycan array binding signal (z-score) [6]: 1.62
glycan array binding signal (z-score) [7]: 1.03
glycan array binding signal (z-score) [8]: -0.435
glycan array binding signal (z-score) [9]: 0.379
glycan array binding signal (z-score) [10]: 0.433
glycan array binding signal (z-score) [11]: 0.55
glycan array binding signal (z-score) [12]: -0.882
glycan array binding signal (z-score) [13]: 1.58
glycan array binding signal (z-score) [14]: 0.115
glycan array binding signal (z-score) [15]: 0.526
glycan array binding signal (z-score) [16]: 0.857
glycan array binding signal (z-score) [17]: 0.061
glycan array binding signal (z-score) [18]: -0.88
glycan array binding signal (z-score) [19]: 0.232
glycan array binding signal (z-score) [20]: 0.186
glycan array binding signal (z-score) [21]: -0.705
glycan array binding signal (z-score) [22]: -0.096
glycan array binding signal (z-score) [23]: -0.14
glycan array binding signal (z-score) [24]: 1.04
glycan array binding signal (z-score) [25]: -0.721
glycan array binding signal (z-score) [26]: 1.6
glycan array binding signal (z-score) (Gal(b1-4)GlcNAc6P): -0.24
glycan array binding signal (z-score) (Gal(b1-6)Gal): -0.766
glycan array binding signal (z-score) (Gal3S(b1-3)GalNAc): -0.202
glycan array binding signal (z-score) (Gal3S(b1-3)GlcNAc): 0.17
glycan array binding signal (z-score) [27]: -0.222
glycan array binding signal (z-score) (Gal3S(b1-4)Glc): 0.72
glycan array binding signal (z-score) (Gal3S(b1-4)Glc6S): -0.45
glycan array binding signal (z-score) (Gal3S(b1-4)GlcNAc): 0.867
glycan array binding signal (z-score) [28]: 1.83
glycan array binding signal (z-score) [29]: -0.583
glycan array binding signal (z-score) [30]: 0.427
